Data: patent US20240041877A1, “DOSAGE REGIME AND METHOD FOR TREATING PULMONARY ARTERIAL HYPERTENSION” (Altavant Sciences GmbH, priority 2019, published 2024)
The name of at least one read-out is uncertain.

Assay: Part 2 (MAD): plasma pharmacokinetics after BID oral KAR5585 for 14 days (incl. accumulation ratios and dose proportionality)

CCOC(=O)[C@@H]1CC2(CCN(c3cc(O[C@H](c4ccc(Cl)cc4-c4ccccc4)C(F)(F)F)nc(N)n3)CC2)CN1 [KAR5585, (S)-ethyl 8-(2-amino-6-((R)-1-(5-chloro-[1,1′-biphenyl]-2-yl)-2,2,2-trifluoroethoxy)pyrimidin-4-yl)-2,8-diazaspiro[4.5]decane-3-carboxylate]
Vz/F (100 mg/dose Fasted Cohort 1, Day 1 AM, Mean): 4900 L
Vz/F (100 mg/dose Fasted Cohort 1, Day 14, Geo. Mean): 4230 L
Vz/F (100 mg/dose Fasted Cohort 1, Day 14, Mean): 4420 L
Vz/F (100 mg/dose Fed Cohort 2, Day 1 AM, Geo. Mean): 3830 L
Vz/F (100 mg/dose Fed Cohort 2, Day 1 AM, Mean): 4100 L
Vz/F (100 mg/dose Fed Cohort 2, Day 1 PM, Geo. Mean): 1730 L
Vz/F (100 mg/dose Fed Cohort 2, Day 1 PM, Mean): 1820 L
Vz/F (100 mg/dose Fed Cohort 2, Day 7 AM, Geo Mean): 3210 L
Vz/F (100 mg/dose Fed Cohort 2, Day 7 AM, Mean): 3360 L
Vz/F (100 mg/dose Fed Cohort 2, Day 7 PM, Geo Mean): 3550 L
Vz/F (100 mg/dose Fed Cohort 2, Day 7 PM, Mean): 3910 L
Vz/F (100 mg/dose Fed Cohort 2, Day 14, Geo Mean): 3330 L
Vz/F (100 mg/dose Fed Cohort 2, Day 14, Mean): 3520 L
Vz/F (200 mg/dose Fed Cohort 3, Day 1 AM, Geo Mean): 3130 L
Vz/F (200 mg/dose Fed Cohort 3, Day 1 AM, Mean): 3220 L
Vz/F (200 mg/dose Fed Cohort 3, Day 1 PM, Geo. Mean): 3010 L
Vz/F (200 mg/dose Fed Cohort 3, Day 1 PM, Mean): 3120 L
Vz/F (200 mg/dose Fed Cohort 3, Day 7 AM, Geo. Mean): 5610 L
Vz/F (200 mg/dose Fed Cohort 3, Day 7 AM, Mean): 5960 L
Vz/F (200 mg/dose Fed Cohort 3, Day 7 PM, Geo. Mean): 7000 L
Vz/F (200 mg/dose Fed Cohort 3, Day 7 PM, Mean): 8710 L
Vz/F (200 mg/dose Fed Cohort 3, Day 14, Mean): 7010 L
Vz/F (400 mg/dose Fasted Cohort 4, Day 1 AM, Geo. Mean): 2360 L
Vz/F (400 mg/dose Fasted Cohort 4, Day 1 AM, Mean): 6800 L
Vz/F (400 mg/dose Fasted Cohort 4, Day 1 PM, Geo. Mean): 3820 L
Vz/F (400 mg/dose Fasted Cohort 4, Day 1 PM, Mean): 4030 L
Vz/F (400 mg/dose Fasted Cohort 4, Day 7 AM, Mean): 6220 L
Vz/F (400 mg/dose Fasted Cohort 4, Day 7 PM, Geo. Mean): 6770 L
Vz/F (400 mg/dose Fasted Cohort 4, Day 7 PM, Mean): 6950 L
Vz/F (400 mg/dose Fasted Cohort 4, Day 14, Geo. Mean): 9780 L
